# Test results reported in US20060068118A1, “Silicon-containing treatments for solid substrates” (priority 2003, published 2006).
# Columns and labels:
# [1] = Bromphenol Blue (BPB) Extraction Method, modified Dow Corning test 0824
# [2] = BPB Direct Stain test after cold water rinse
smiles,measurement,setting,value
"CCCCCCCCCCCCCCCCCC[N+](C)(C)CCC[Si](OC)(OC)OC.[Cl-] [Sample 1, N,N-dimethyl-N-Octadecyl-3-(trimethoxysilyl)propanaminium chloride]",OSB % BPB ext.,"[1]; Example 4, OSB, AA 1.25 mg/inch^2",46%
same,decking % BPB ext.,"[1]; Example 4, decking, AA 1.25 mg/inch^2",3%
same,shingle % BPB ext.,"[1]; Example 4, shingle, AA 1.25 mg/inch^2, spray, cold water rinse",3%
same,siding % BPB ext.,"[1]; Example 4, AA 1.25 mg/inch^2",4%
same,wood % BPB ext.,"[1]; Example 4, wood, AA 1.25 mg/inch^2",37%
same,OSB % BPB ext.,"[1]; Example 5, OSB, AA 1.25 mg/inch^2",36%
same,decking % BPB ext.,"[1]; Example 5, decking, AA 1.25 mg/inch^2",3%
same,siding % BPB ext.,"[1]; Example 5, AA 1.25 mg/inch^2",4%
same,wood % BPB ext.,"[1]; Example 5, wood, AA 1.25 mg/inch^2",37%
same,% BPB Extraction,"[1]; shingle, AA Actives 0.05%, room temperature, rinsed",3%
same,% BPB Extraction,"[1]; shingle, AA Actives 1%, room temperature, rinsed",8%
"CCCCCCCCCCCCCCCCCC[N+](C)(C)CCC[Si](OC)(OC)OC.[Cl-] [AEM, N,N-dimethyl-N-Octadecyl-3-(trimethoxysilyl)propanaminium chloride]",% BPB Extraction,"[1]; Example 7, OSB, brushed on, 135 mg/ft^2 AEM Actives then 90 mg/ft^2 Na4SiO4 Actives, water rinse",54%
same,% BPB Extraction,"[1]; Example 7, OSB, brushed on, 135 mg/ft^2 AEM Actives then 180 mg/ft^2 Na4SiO4 Actives, water rinse",49%
same,% BPB Extraction,"[1]; Example 7, OSB, brushed on, 135 mg/ft^2 AEM Actives then 270 mg/ft^2 Na4SiO4 Actives, water rinse",62%
same,"% BPB Extraction, OSB Brush","[1]; Example 9, OSB, washed and cleaned with a brush",40%
same,"% BPB Extraction, OSB No Brush","[1]; Example 9, OSB, washed, no brush",35%
same,"% BPB Extraction, Decking Brush","[1]; Example 9, decking, washed and cleaned with a brush",4%
same,"% BPB Extraction, Decking No Brush","[1]; Example 9, decking, washed with cold water, no brush",10%
same,"% BPB Extraction, Shingle Brush","[1]; Example 9, shingle, washed and cleaned with a brush",4%
same,"% BPB Extraction, Shingle No Brush","[1]; Example 9, shingle, washed, no brush",2%
same,"% BPB Extraction, Wood Brush","[1]; Example 9, wood, washed and cleaned with a brush",30%
same,"% BPB Extraction, Wood No Brush","[1]; Example 9, wood, washed, no brush",30%
same,OSB % BPB Ext,"[1]; Example 10, OSB, AEM 1.25 mg/inch^2, rinsed, measured wet",41%
same,Decking % BPB Ext,"[1]; Example 10, decking, AEM 1.25 mg/inch^2, rinsed, measured wet",19%
same,Shingle % BPB Ext,"[1]; Example 10, shingle, AEM 1.25 mg/inch^2, rinsed, measured wet",11%
same,BPB color on the shingle,"[2]; Example 1, 1% agent alone sprayed on asphalt roofing shingle, immediately rinsed in cold water",no BPB color
same,adherence to substrate after water washing,"[2]; Example 2, agent spray followed immediately by potassium methyl siliconate spray, rinsed with copious water",adhered to the substrate and remained there after the copious water washing
